In the supplement of paper PMC10849652:
Some of the results follow.

By UniProt entry, the sequences of proteins in these tests, tags left out. Where a name states a change or a piece, a line headed by the entry shows the natural chain unless it says otherwise.
UniProt P35244: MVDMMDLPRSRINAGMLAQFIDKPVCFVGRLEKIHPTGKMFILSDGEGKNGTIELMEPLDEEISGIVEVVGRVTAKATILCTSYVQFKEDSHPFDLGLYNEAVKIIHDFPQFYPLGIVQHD
UniProt P62745, whole entry, looked up: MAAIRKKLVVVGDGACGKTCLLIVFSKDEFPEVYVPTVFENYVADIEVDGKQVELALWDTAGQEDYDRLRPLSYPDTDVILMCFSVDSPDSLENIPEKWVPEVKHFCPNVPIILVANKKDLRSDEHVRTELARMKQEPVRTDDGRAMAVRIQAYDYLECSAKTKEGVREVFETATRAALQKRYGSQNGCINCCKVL
UniProt Q5M7Z0: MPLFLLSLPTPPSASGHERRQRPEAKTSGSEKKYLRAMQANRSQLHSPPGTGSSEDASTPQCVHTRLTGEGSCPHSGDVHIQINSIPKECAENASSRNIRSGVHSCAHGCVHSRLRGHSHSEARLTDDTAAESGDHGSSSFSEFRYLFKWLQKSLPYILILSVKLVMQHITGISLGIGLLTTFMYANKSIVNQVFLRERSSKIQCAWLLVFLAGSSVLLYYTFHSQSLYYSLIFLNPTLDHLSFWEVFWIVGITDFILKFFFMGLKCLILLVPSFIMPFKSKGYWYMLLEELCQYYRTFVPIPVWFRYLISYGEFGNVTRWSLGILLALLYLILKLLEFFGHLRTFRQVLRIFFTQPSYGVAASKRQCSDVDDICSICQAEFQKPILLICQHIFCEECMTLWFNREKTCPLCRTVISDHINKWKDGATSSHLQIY
UniProt Q9H6T3, whole entry, looked up: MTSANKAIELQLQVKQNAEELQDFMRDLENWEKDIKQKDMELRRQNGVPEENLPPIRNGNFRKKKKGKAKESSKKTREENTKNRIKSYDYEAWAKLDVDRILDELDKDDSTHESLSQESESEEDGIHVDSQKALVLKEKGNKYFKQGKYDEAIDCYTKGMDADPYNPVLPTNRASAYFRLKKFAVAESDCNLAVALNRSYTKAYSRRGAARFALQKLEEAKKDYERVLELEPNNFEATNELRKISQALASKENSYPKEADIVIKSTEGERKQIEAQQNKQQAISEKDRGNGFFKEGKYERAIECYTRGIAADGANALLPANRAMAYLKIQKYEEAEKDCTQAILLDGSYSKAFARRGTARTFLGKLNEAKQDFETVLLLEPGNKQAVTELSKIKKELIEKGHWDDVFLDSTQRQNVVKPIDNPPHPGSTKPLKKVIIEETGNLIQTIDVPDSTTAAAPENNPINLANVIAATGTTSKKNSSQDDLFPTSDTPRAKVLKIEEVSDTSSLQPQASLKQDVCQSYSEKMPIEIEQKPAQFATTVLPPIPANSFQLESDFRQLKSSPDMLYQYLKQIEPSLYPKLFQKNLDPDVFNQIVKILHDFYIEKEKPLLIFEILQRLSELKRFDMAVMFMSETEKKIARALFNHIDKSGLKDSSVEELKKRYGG
UniProt Q6ZS11: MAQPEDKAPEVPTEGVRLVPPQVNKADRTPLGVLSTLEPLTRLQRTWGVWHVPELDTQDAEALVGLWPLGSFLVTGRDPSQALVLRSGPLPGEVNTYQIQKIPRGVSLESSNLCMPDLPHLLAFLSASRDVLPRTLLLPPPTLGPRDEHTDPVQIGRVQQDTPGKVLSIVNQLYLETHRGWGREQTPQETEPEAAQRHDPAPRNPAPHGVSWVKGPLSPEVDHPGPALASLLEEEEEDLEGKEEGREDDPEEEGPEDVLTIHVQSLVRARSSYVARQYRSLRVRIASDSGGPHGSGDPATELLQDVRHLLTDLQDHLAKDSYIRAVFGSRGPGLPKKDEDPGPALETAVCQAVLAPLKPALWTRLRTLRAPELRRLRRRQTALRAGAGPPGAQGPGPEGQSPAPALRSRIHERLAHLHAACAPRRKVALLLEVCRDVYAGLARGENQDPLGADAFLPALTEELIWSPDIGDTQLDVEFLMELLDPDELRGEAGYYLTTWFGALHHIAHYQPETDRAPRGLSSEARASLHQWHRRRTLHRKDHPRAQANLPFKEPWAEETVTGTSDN
UniProt Q99496: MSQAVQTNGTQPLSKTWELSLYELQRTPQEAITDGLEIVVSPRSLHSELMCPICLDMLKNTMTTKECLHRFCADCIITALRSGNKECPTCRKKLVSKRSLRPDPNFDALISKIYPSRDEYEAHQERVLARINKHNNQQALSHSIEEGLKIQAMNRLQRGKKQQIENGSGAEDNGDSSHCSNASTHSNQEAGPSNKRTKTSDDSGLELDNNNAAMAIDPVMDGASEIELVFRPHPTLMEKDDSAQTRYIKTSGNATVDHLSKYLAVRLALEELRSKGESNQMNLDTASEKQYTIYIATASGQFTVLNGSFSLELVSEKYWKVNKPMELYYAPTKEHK
UniProt Q9H6W3: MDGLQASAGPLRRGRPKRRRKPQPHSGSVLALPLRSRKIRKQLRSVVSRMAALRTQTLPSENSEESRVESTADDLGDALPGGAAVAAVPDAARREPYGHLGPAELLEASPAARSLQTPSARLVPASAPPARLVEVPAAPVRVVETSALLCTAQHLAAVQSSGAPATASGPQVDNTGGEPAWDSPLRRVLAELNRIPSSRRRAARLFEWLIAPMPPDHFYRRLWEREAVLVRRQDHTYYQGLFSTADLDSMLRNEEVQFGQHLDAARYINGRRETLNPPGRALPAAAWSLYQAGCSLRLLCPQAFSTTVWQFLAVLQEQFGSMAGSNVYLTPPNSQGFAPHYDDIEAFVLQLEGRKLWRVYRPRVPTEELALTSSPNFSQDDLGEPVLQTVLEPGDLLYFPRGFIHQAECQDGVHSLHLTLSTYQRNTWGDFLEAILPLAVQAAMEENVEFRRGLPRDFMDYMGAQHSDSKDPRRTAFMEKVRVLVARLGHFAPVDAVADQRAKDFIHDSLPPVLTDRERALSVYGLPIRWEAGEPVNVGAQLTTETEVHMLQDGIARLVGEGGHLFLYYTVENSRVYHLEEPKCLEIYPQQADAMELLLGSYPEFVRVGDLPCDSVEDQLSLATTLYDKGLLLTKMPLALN
UniProt Q9HAU8: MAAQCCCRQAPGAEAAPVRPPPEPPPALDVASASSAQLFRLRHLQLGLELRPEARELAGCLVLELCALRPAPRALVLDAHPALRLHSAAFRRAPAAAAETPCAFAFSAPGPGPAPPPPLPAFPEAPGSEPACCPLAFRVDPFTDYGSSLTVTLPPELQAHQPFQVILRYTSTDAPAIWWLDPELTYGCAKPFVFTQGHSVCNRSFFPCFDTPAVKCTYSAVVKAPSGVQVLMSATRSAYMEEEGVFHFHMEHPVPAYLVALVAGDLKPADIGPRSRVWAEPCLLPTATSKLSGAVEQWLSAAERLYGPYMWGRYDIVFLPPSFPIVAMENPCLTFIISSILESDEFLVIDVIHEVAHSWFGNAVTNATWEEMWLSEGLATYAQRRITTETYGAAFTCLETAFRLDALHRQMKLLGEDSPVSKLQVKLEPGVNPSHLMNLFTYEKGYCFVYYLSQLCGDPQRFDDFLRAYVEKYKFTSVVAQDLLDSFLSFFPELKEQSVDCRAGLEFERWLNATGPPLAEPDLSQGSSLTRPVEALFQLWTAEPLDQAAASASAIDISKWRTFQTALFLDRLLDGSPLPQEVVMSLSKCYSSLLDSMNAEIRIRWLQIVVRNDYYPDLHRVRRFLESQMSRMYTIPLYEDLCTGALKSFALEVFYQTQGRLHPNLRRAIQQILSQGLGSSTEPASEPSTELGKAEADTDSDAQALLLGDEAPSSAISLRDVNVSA
UniProt Q9UBS8: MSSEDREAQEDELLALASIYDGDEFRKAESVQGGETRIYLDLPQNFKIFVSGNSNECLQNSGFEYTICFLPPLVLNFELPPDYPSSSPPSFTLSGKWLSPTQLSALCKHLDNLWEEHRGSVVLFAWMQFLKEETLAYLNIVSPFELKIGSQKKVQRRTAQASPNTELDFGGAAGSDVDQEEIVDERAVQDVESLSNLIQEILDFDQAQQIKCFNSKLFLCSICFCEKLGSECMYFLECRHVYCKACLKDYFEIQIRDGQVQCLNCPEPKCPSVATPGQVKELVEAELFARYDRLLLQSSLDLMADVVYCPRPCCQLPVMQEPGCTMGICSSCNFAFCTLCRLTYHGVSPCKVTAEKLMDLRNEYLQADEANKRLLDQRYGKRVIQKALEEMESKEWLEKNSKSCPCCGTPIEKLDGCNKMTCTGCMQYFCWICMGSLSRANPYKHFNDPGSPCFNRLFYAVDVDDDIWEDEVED
UniProt O75695: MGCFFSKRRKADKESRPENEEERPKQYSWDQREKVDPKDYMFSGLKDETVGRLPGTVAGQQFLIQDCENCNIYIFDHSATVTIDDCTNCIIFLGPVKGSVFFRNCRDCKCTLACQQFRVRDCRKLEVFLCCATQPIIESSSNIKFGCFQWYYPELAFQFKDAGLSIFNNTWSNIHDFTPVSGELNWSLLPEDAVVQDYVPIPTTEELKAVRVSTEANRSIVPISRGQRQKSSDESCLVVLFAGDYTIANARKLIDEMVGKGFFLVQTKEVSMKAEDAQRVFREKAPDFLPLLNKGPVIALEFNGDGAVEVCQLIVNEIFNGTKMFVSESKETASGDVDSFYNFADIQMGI
UniProt Q5TA31: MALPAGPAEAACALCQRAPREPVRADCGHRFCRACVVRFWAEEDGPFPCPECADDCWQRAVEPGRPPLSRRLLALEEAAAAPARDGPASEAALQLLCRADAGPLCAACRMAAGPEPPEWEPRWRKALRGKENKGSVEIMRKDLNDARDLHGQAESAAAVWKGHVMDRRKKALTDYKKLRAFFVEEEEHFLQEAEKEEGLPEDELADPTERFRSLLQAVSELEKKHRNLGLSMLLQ
UniProt Q9UBF6, whole entry, looked up: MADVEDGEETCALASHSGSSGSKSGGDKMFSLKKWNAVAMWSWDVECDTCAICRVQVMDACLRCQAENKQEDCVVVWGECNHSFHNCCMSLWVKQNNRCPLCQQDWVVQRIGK
UniProt Q96BH1: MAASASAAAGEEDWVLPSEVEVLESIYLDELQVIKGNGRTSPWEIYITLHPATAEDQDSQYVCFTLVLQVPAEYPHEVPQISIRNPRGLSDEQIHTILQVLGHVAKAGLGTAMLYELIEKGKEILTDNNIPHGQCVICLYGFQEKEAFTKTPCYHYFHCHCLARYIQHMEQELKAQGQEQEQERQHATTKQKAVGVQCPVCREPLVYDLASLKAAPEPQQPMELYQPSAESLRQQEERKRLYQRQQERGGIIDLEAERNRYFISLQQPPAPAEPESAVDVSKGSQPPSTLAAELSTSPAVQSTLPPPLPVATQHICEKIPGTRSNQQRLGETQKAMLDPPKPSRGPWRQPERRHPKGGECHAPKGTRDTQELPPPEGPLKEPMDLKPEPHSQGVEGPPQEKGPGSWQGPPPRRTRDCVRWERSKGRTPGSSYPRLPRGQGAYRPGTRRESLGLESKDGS
UniProt Q9NWS8: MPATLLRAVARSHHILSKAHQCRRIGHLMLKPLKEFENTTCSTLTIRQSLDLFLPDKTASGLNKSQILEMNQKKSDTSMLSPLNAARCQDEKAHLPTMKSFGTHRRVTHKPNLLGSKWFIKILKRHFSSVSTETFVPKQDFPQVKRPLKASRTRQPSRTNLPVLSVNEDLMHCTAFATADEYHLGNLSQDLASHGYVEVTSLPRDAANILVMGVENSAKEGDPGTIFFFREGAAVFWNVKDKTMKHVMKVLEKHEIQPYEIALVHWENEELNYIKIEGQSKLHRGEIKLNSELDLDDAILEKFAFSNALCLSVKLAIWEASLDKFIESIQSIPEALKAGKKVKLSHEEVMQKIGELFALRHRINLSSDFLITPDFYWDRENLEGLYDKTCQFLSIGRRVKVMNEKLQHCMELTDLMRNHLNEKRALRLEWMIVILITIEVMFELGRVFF
UniProt Q96NA2: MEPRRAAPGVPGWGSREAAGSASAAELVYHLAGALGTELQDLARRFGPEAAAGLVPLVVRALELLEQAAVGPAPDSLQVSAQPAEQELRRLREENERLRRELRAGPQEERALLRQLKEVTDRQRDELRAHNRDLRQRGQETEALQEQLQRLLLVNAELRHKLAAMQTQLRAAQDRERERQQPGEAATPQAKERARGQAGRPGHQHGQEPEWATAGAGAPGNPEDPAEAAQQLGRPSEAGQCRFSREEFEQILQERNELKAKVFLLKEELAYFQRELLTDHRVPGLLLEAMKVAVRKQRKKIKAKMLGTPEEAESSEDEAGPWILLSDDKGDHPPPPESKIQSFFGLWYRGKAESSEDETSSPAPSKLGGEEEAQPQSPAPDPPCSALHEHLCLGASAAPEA
UniProt Q9NTX7: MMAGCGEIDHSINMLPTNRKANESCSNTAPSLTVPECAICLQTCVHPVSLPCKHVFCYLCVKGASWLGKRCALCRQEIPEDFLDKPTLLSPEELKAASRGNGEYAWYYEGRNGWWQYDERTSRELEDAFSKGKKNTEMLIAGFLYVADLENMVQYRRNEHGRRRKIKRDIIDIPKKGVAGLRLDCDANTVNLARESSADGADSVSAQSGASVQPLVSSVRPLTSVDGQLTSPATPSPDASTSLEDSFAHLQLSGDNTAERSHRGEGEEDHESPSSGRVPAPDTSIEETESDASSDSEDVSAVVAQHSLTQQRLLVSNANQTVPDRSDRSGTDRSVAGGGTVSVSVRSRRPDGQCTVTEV

Key:
Test in all cases: log2 fold change, soluble protein after heating vs DMSO (PISA); higher = thermal stabilisation; K562 lysate, 10 uM; active = over 0.2 and 3.5 SD of the protein, either way, in both replicates (recomputed)
alvocidib = compound: CN1CC[C@H](c2c(O)cc(O)c3c(=O)cc(-c4ccccc4Cl)oc23)[C@H](O)C1 [alvocidib]
Method in brief: (§1)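 Soluble protein was defined as the supernatant remaining after 21,000xg for 90 min, following pooling of heated aliquots and adjustment to 0.5% NP-40 at 4°C. Before that, crude K562 extract at 1 mg/mL protein in PBS pH 7.4 with 1 mM MgCl2 was treated with 10 μM compound for 30 min and heated for 3 min across 48°C-58°C. Quantification used TMTpro 16plex LC-MS/MS with channel sums equalised, and values are log-two fold changes in thermal stability relative to solvent controls from duplicates.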

Tubastatin A = compound: CN1CCc2c(c3ccccc3n2Cc2ccc(C(=O)NO)cc2)C1 [Tubastatin A]
Method in brief: as §1

[1] = compound: CNC(=O)C1=CC=CC=C1NC2=NC(=NC=C2Cl)NC3=C(C=C(C=C3)N4CCOCC4)OC
Method in brief: as §1

defactinib = compound: CNC(=O)c1ccc(Nc2ncc(C(F)(F)F)c(NCc3nccnc3N(C)S(C)(=O)=O)n2)cc1 [defactinib]
Method in brief: as §1

[2] = compound: CNc1nc(-c2ccc3c(N)n[nH]c3c2)cc(N2C[C@@H](C(=O)NC3CCCCC3)CC[C@H]2C)n1
Method in brief: as §1

encorafenib = compound: COC(=O)N[C@@H](C)CNc1nccc(-c2cn(C(C)C)nc2-c2cc(Cl)cc(NS(C)(=O)=O)c2F)n1 [encorafenib]
Method in brief: as §1

[3] = compound: COC(=O)[C@H](CCSC)NC(=O)C1=C(C=C(C=C1)NC[C@H](CS)N)C2=CC=CC=C2
Method in brief: as §1

alisertib = compound: COc1cc(Nc2ncc3c(n2)-c2ccc(Cl)cc2C(c2c(F)cccc2OC)=NC3)ccc1C(=O)O [alisertib]
Method in brief: as §1

[4] = compound: COc1cc2nc(-c3cc(F)ccc3O)nc(N[C@@H]3CNC[C@H]3C(C)(C)O)c2cc1OC
Method in brief: as §1

gefitinib = compound: COc1cc2ncnc(Nc3ccc(F)c(Cl)c3)c2cc1OCCCN1CCOCC1 [gefitinib]
Method in brief: as §1

Measured: log2 fold change

RPA3 (UniProt P35244)
inactive: alvocidib 0.009 | Tubastatin A 0.017 | [1] 0.02 | defactinib 0.064 | [2] -0.032 | encorafenib -0.015 | [3] -0.019 | alisertib -0.031 | [4] -0.024 | gefitinib -0.08

RHOB (UniProt P62745)
inactive: alvocidib 0.052 | Tubastatin A -0.028 | [1] 0.018 | defactinib 0.024 | [2] 0.095 | encorafenib 0 | [3] -0.037 | alisertib 0.044 | [4] 0.046 | gefitinib 0.056

RNFT1 (UniProt Q5M7Z0)
inactive: alvocidib 0.06 | Tubastatin A 0.037 | [1] -0.098 | [2] 0.036 | encorafenib 0.162 | [3] -0.172 | alisertib -0.208 | gefitinib -0.319

RPAP3 (UniProt Q9H6T3)
inactive: alvocidib 0.02 | Tubastatin A -0.046 | [1] 0.036 | defactinib -0.01 | [2] -0.031 | encorafenib 0.011 | [3] 0.025 | alisertib 0.026 | [4] 0.004 | gefitinib -0.011

RPL26 (UniProt P61254)
inactive: alvocidib 0.22 | Tubastatin A 0.067 | [1] -0.001 | defactinib 0.08 | [2] 0.144 | encorafenib -0.051 | [3] 0.096 | alisertib -0.218 | [4] -0.04 | gefitinib -0.292

RINL (UniProt Q6ZS11)
inactive: alvocidib 0.126 | Tubastatin A -0.142 | [1] 0.117 | [2] 0.07 | encorafenib 0.283 | [3] 0.212 | alisertib 0.066 | [4] 0.04 | gefitinib -0.022

RNF2 (UniProt Q99496)
inactive: alvocidib 0.359 | Tubastatin A -0.008 | [1] 0.067 | defactinib 0.034 | [2] 0.018 | encorafenib 0.054 | [3] -0.076 | alisertib -0.125 | gefitinib -0.038

RPL3 (UniProt P39023)
inactive: alvocidib 0.06 | Tubastatin A -0.016 | [1] -0.007 | defactinib 0.024 | [2] -0.06 | encorafenib 0.016 | [3] -0.006 | alisertib -0.004 | [4] -0.019 | gefitinib -0.034

RIOX1 (UniProt Q9H6W3)
inactive: alvocidib 0.057 | Tubastatin A -0.097 | [1] 0.035 | defactinib 0.013 | [2] 0.033 | encorafenib 0.011 | [3] 0.11 | alisertib 0.151 | [4] 0.008 | gefitinib 0.11

RNPEPL1 (UniProt Q9HAU8)
inactive: alvocidib 0.073 | Tubastatin A 0.007 | [1] -0.015 | defactinib -0.161 | [2] 0.056 | alisertib -0.111 | [4] 0.252 | gefitinib 0.095

RNF14 (UniProt Q9UBS8)
inactive: alvocidib -0.007 | Tubastatin A 0.014 | [1] 0.022 | defactinib -0.006 | [2] -0.01 | encorafenib -0.006 | [3] 0.03 | alisertib -0.043 | [4] 0.03 | gefitinib 0.017

RPL13 (UniProt P26373)
inactive: alvocidib -0.038 | Tubastatin A 0.035 | [1] -0.036 | defactinib 0.006 | [2] 0.008 | encorafenib -0.009 | [3] 0 | alisertib 0.028 | [4] -0.019 | gefitinib -0.038

RP2 (UniProt O75695)
inactive: alvocidib 0.029 | Tubastatin A 0.042 | [1] 0.019 | defactinib -0.019 | [2] 0.021 | encorafenib -0.09 | [3] -0.028 | alisertib 0.01 | [4] -0.015 | gefitinib -0.005

RNF5 (UniProt Q99942)
inactive: alvocidib -0.016 | Tubastatin A -0.055 | [1] -0.099 | [2] -0.035 | encorafenib 0.063 | [3] -0.084 | alisertib 0.081 | gefitinib 0.03

RPL35A (UniProt P18077)
inactive: alvocidib -0.067 | Tubastatin A 0.038 | [1] 0.004 | defactinib 0 | [2] 0.001 | encorafenib 0.005 | [3] 0.032 | alisertib 0.036 | [4] 0.002 | gefitinib -0.034

RNASEH2A (UniProt O75792)
inactive: alvocidib 0.006 | Tubastatin A 0.009 | [1] 0.008 | defactinib -0.057 | [2] -0.024 | encorafenib 0.001 | [3] 0.058 | alisertib 0.023 | [4] -0.017 | gefitinib -0.001

Taken from the results shown (2 entries):
RHOB (UniProt P62745)
inactive: alvocidib 0.052 | Tubastatin A -0.028 | [1] 0.018 | defactinib 0.024 | [2] 0.095 | encorafenib 0 | [3] -0.037 | alisertib 0.044 | [4] 0.046 | gefitinib 0.056

RNFT1 (UniProt Q5M7Z0)
inactive: alvocidib 0.06 | Tubastatin A 0.037 | [1] -0.098 | [2] 0.036 | encorafenib 0.162 | [3] -0.172 | alisertib -0.208 | gefitinib -0.319

Going on with the list:

RPL10 (UniProt F8W7C6)
inactive: alvocidib -0.089 | Tubastatin A 0.169 | [1] 0.015 | defactinib 0.003 | [2] 0.138 | encorafenib 0.048 | [3] 0.058 | alisertib 0.167 | [4] -0.028 | gefitinib 0.052

RNF187 (UniProt Q5TA31)
inactive: alvocidib -0.028 | Tubastatin A 0.061 | [1] 0.071 | defactinib -0.073 | [2] 0.022 | encorafenib 0.131 | [3] -0.057 | alisertib -0.013 | gefitinib 0.009

RIF1 (UniProt Q5UIP0)
inactive: alvocidib -0.01 | Tubastatin A -0.042 | [1] 0.039 | defactinib -0.007 | [2] 0.015 | encorafenib 0.008 | [3] 0.053 | alisertib -0.014 | [4] 0.004 | gefitinib 0

RPL30 (UniProt P62888)
inactive: alvocidib -0.021 | Tubastatin A 0.028 | [1] -0.007 | defactinib 0.016 | [2] -0.013 | encorafenib 0.029 | [3] 0.006 | alisertib -0.002 | [4] -0.002 | gefitinib -0.008

RPL18A (UniProt Q02543)
inactive: alvocidib 0.011 | Tubastatin A -0.004 | [1] -0.006 | defactinib 0.026 | [2] -0.021 | encorafenib 0.039 | [3] 0.002 | alisertib 0.004 | [4] -0.001 | gefitinib -0.031

RNF7 (UniProt Q9UBF6)
inactive: alvocidib -0.071 | Tubastatin A 0.074 | [1] -0.011 | defactinib -0.016 | [2] 0.061 | encorafenib -0.153 | [3] 0.037 | alisertib -0.048 | [4] 0.016 | gefitinib -0.114

RNF25 (UniProt Q96BH1)
inactive: alvocidib -0.006 | Tubastatin A 0.018 | [1] -0.006 | defactinib 0.001 | [2] 0.071 | encorafenib 0.004 | [3] -0.028 | alisertib -0.097 | [4] -0.021 | gefitinib -0.031

RMND1 (UniProt Q9NWS8)
inactive: alvocidib 0 | Tubastatin A 0.045 | [1] 0.045 | defactinib 0.007 | [2] -0.033 | encorafenib -0.006 | [3] 0.029 | alisertib -0.055 | [4] 0.035 | gefitinib 0.023

RILP (UniProt Q96NA2)
inactive: alvocidib 0.023 | Tubastatin A -0.001 | [1] 0.006 | defactinib 0 | [2] 0.005 | encorafenib 0.032 | [3] 0.002 | alisertib 0.009 | [4] -0.042 | gefitinib 0.033

RPL14 (UniProt P50914)
inactive: alvocidib 0.011 | Tubastatin A -0.045 | [1] 0.017 | defactinib -0.003 | [2] -0.006 | encorafenib -0.001 | [3] -0.003 | alisertib -0.014 | [4] -0.019 | gefitinib -0.017

RNF146 (UniProt Q9NTX7)
inactive: alvocidib 0.047 | Tubastatin A -0.005 | [1] 0.025 | defactinib 0.064 | [2] 0.07 | encorafenib -0.037 | [3] -0.099 | alisertib 0.038 | [4] -0.001 | gefitinib -0.198

RNF31 (UniProt Q96EP0)
inactive: alvocidib -0.009 | Tubastatin A -0.018 | [1] 0.01 | defactinib -0.004 | [2] -0.035 | encorafenib -0.014 | [3] 0.015 | alisertib 0.029 | [4] 0.065 | gefitinib 0.029
